The supplement of paper PMC7661543
± gives the standard deviation of the averaged measurements. The effect of the compound repeats well; differences between the knockouts mostly do not.

System: MDA-MB-231
Assay: relative cell number vs DMSO control (72 h) (% of DMSO); higher = less growth inhibition (more cells)
Procedure: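 QMAP-Seq: a pool of 5 breast cancer cell lines (ZR-75-1, SKBR3, HCC-38, MDA-MB-231, BT-20), each carrying 12 doxycycline-inducible Cas9 sgRNA perturbations (11 knockouts plus non-targeting sgNT), was treated with compounds for 72 h at four 10-fold doses (10 nM-10 uM or 1 nM-1 uM range). Barcodes were amplified and sequenced, and cell number was interpolated from 293T spike-in standard curves. The result is expressed as % of the median of DMSO wells. Two biological replicates.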

[1] = sgRNA knockout: sgATF3, 1000 nM
[2] = sgRNA knockout: sgATF3, 10000 nM
[3] = sgRNA knockout: sgATF4, 1000 nM
[4] = sgRNA knockout: sgATF4, 10000 nM
[5] = sgRNA knockout: sgATF6, 1000 nM
[6] = sgRNA knockout: sgATF6, 10000 nM
[7] = sgRNA knockout: sgATG7, 1000 nM
[8] = sgRNA knockout: sgATG7, 10000 nM
[9] = sgRNA knockout: sgERN1, 1000 nM
[10] = sgRNA knockout: sgERN1, 10000 nM
[11] = sgRNA knockout: sgHSF1, 1000 nM
[12] = sgRNA knockout: sgHSF1, 10000 nM
[13] = sgRNA knockout: sgHSF2, 1000 nM
[14] = sgRNA knockout: sgHSF2, 10000 nM
[15] = sgRNA knockout: sgKEAP1, 100 nM
[16] = sgRNA knockout: sgKEAP1, 1000 nM
[17] = sgRNA knockout: sgKEAP1, 10000 nM
[18] = sgRNA knockout: sgNFE2L2, 10 nM
[19] = sgRNA knockout: sgNFE2L2, 100 nM
[20] = sgRNA knockout: sgNFE2L2, 1000 nM
[21] = sgRNA knockout: sgNFE2L2, 10000 nM
[22] = sgRNA knockout: sgSLC35F2, 10 nM
[23] = sgRNA knockout: sgSLC35F2, 100 nM
[24] = sgRNA knockout: sgSLC35F2, 1000 nM
[25] = sgRNA knockout: sgSLC35F2, 10000 nM
[26] = sgRNA knockout: sgXBP1, 1000 nM
[27] = sgRNA knockout: sgXBP1, 10000 nM

`Cc1ccc(NC(=O)c2ccc(CN3CCN(C)CC3)cc2)cc1Nc1nc(-c2cccnc2)cs1` [Masitinib] gave a relative cell number (sgRNA knockout: sgATF3, 10 nM) of 107 ± 1.2, a relative cell number (sgRNA knockout: sgATF3, 100 nM) of 88.7 ± 14 and a relative cell number [1] of 87.8 ± 38. For the same molecule, the relative cell number [2] was 55.8 ± 21, the relative cell number (sgRNA knockout: sgATF4, 10 nM) was 96.2 ± 33 and the relative cell number (sgRNA knockout: sgATF4, 100 nM) was 97.3 ± 52. It also gave a relative cell number [3] of 76.7 ± 19, a relative cell number [4] of 48.1 ± 17 and a relative cell number (sgRNA knockout: sgATF6, 10 nM) of 128 ± 26. The relative cell number (sgRNA knockout: sgATF6, 100 nM) was 96.4 ± 31, the relative cell number [5] was 104 ± 13 and the relative cell number [6] was 46.7 ± 5.8. It also gave a relative cell number (sgRNA knockout: sgATG7, 10 nM) of 83.6 ± 14, a relative cell number (sgRNA knockout: sgATG7, 100 nM) of 97.1 ± 12 and a relative cell number [7] of 69.9 ± 9.1. The relative cell number [8] was 60.6 ± 14, the relative cell number (sgRNA knockout: sgERN1, 10 nM) was 115 ± 3.9 and the relative cell number (sgRNA knockout: sgERN1, 100 nM) was 117 ± 5.3. The relative cell number [9] was 122 ± 2.4, the relative cell number [10] was 43 ± 22 and the relative cell number (sgRNA knockout: sgHSF1, 10 nM) was 86 ± 5.4. The relative cell number (sgRNA knockout: sgHSF1, 100 nM) was 91 ± 22, the relative cell number [11] was 80.5 ± 14 and the relative cell number [12] was 43.8 ± 22. It also gave a relative cell number (sgRNA knockout: sgHSF2, 10 nM) of 86.4 ± 17, a relative cell number (sgRNA knockout: sgHSF2, 100 nM) of 97.6 ± 21 and a relative cell number [13] of 97.5 ± 21. It also gave a relative cell number [14] of 63.6 ± 8, a relative cell number (sgRNA knockout: sgKEAP1, 10 nM) of 99.9 ± 18 and a relative cell number [15] of 78.7 ± 13. The relative cell number [16] was 109 ± 21, the relative cell number [17] was 46.9 ± 4 and the relative cell number [18] was 113 ± 8.3. It also gave a relative cell number [19] of 77.8 ± 5.9, a relative cell number [20] of 105 ± 37 and a relative cell number [21] of 46.8 ± 5.7. For the same molecule, the relative cell number [22] was 102 ± 30, the relative cell number [23] was 79.2 ± 28 and the relative cell number [24] was 94.9 ± 12. It also gave a relative cell number [25] of 71.2 ± 11, a relative cell number (sgRNA knockout: sgXBP1, 10 nM) of 80.9 ± 2.5 and a relative cell number (sgRNA knockout: sgXBP1, 100 nM) of 90.6 ± 2.3. It also gave a relative cell number [26] of 112 ± 11 and a relative cell number [27] of 46.54 ± 0.39.
`O=c1[nH]cc(F)c(=O)[nH]1` [5-Fluorouracil] gave a relative cell number (sgRNA knockout: sgATF3, 10 nM) of 98.4 ± 10, a relative cell number (sgRNA knockout: sgATF3, 100 nM) of 99.7 ± 9.3 and a relative cell number [1] of 112 ± 5.1. For the same molecule, the relative cell number [2] was 40.8 ± 3.6, the relative cell number (sgRNA knockout: sgATF4, 10 nM) was 82.6 ± 20 and the relative cell number (sgRNA knockout: sgATF4, 100 nM) was 74.5 ± 23. The relative cell number [3] was 72.3 ± 16, the relative cell number [4] was 71.9 ± 32 and the relative cell number (sgRNA knockout: sgATF6, 10 nM) was 94.4 ± 13. It also gave a relative cell number (sgRNA knockout: sgATF6, 100 nM) of 118 ± 28, a relative cell number [5] of 93.7 ± 8.2 and a relative cell number [6] of 47.3 ± 14. For the same molecule, the relative cell number (sgRNA knockout: sgATG7, 10 nM) was 88.2 ± 2.7, the relative cell number (sgRNA knockout: sgATG7, 100 nM) was 91.8 ± 21 and the relative cell number [7] was 100 ± 11. For the same molecule, the relative cell number [8] was 51.8 ± 2.4, the relative cell number (sgRNA knockout: sgERN1, 10 nM) was 99.5 ± 14 and the relative cell number (sgRNA knockout: sgERN1, 100 nM) was 127 ± 40. The relative cell number [9] was 105 ± 2.2, the relative cell number [10] was 41.7 ± 4.2 and the relative cell number (sgRNA knockout: sgHSF1, 10 nM) was 91.2 ± 9.4. The relative cell number (sgRNA knockout: sgHSF1, 100 nM) was 92.2 ± 21, the relative cell number [11] was 101 ± 16 and the relative cell number [12] was 50.5 ± 0.94. The relative cell number (sgRNA knockout: sgHSF2, 10 nM) was 69.2 ± 12, the relative cell number (sgRNA knockout: sgHSF2, 100 nM) was 104 ± 10 and the relative cell number [13] was 83.8 ± 20. For the same molecule, the relative cell number [14] was 46.8 ± 4.6, the relative cell number (sgRNA knockout: sgKEAP1, 10 nM) was 97.4 ± 23 and the relative cell number [15] was 116 ± 27. It also gave a relative cell number [16] of 88.7 ± 11, a relative cell number [17] of 38.9 ± 0.65 and a relative cell number [18] of 93 ± 16. The relative cell number [19] was 91.9 ± 39, the relative cell number [20] was 120 ± 13 and the relative cell number [21] was 46 ± 12. It also gave a relative cell number [22] of 91.3 ± 24, a relative cell number [23] of 105 ± 31 and a relative cell number [24] of 85.7 ± 1.8. It also gave a relative cell number [25] of 44.22 ± 0.25, a relative cell number (sgRNA knockout: sgXBP1, 10 nM) of 82.5 ± 2.9 and a relative cell number (sgRNA knockout: sgXBP1, 100 nM) of 105 ± 17. It also gave a relative cell number [26] of 116 ± 28 and a relative cell number [27] of 55.4 ± 15.
`O=C(NOCC(O)CO)c1cc(Br)c(F)c(F)c1Nc1ccc(I)cc1F` (configuration not stated) was tested, and the relative cell number (sgRNA knockout: sgATF3, 10 nM) was 109 ± 7.6, the relative cell number (sgRNA knockout: sgATF3, 100 nM) was 115 ± 35 and the relative cell number [1] was 65.8 ± 6.3. It also gave a relative cell number [2] of 37 ± 4.2, a relative cell number (sgRNA knockout: sgATF4, 10 nM) of 139 ± 4.2 and a relative cell number (sgRNA knockout: sgATF4, 100 nM) of 111 ± 9.9. It also gave a relative cell number [3] of 91.3 ± 28, a relative cell number [4] of 43.6 ± 10 and a relative cell number (sgRNA knockout: sgATF6, 10 nM) of 89.2 ± 17. It also gave a relative cell number (sgRNA knockout: sgATF6, 100 nM) of 86.4 ± 35, a relative cell number [5] of 76.3 ± 12 and a relative cell number [6] of 52.8 ± 29. The relative cell number (sgRNA knockout: sgATG7, 10 nM) was 101 ± 19, the relative cell number (sgRNA knockout: sgATG7, 100 nM) was 93.3 ± 1.8 and the relative cell number [7] was 64.1 ± 7.7. The relative cell number [8] was 50.7 ± 20, the relative cell number (sgRNA knockout: sgERN1, 10 nM) was 98.3 ± 13 and the relative cell number (sgRNA knockout: sgERN1, 100 nM) was 85.8 ± 6.7. The relative cell number [9] was 74 ± 6.3, the relative cell number [10] was 43.5 ± 3.8 and the relative cell number (sgRNA knockout: sgHSF1, 10 nM) was 93.3 ± 14. The relative cell number (sgRNA knockout: sgHSF1, 100 nM) was 81.1 ± 3.5, the relative cell number [11] was 76.5 ± 17 and the relative cell number [12] was 40.3 ± 7.1. It also gave a relative cell number (sgRNA knockout: sgHSF2, 10 nM) of 97.9 ± 22, a relative cell number (sgRNA knockout: sgHSF2, 100 nM) of 84.2 ± 20 and a relative cell number [13] of 65.7 ± 3. The relative cell number [14] was 48.6 ± 6.8, the relative cell number (sgRNA knockout: sgKEAP1, 10 nM) was 115 ± 27 and the relative cell number [15] was 98.9 ± 17. The relative cell number [16] was 73.1 ± 0.8, the relative cell number [17] was 48.3 ± 5.6 and the relative cell number [18] was 128 ± 30. It also gave a relative cell number [19] of 85.2 ± 5, a relative cell number [20] of 65.2 ± 7.2 and a relative cell number [21] of 43.9 ± 1. For the same molecule, the relative cell number [22] was 115 ± 19, the relative cell number [23] was 65.9 ± 7.9 and the relative cell number [24] was 73.6 ± 6.2. For the same molecule, the relative cell number [25] was 41.4 ± 10, the relative cell number (sgRNA knockout: sgXBP1, 10 nM) was 113 ± 8.1 and the relative cell number (sgRNA knockout: sgXBP1, 100 nM) was 85.1 ± 11. For the same molecule, the relative cell number [26] was 78 ± 1.6 and the relative cell number [27] was 50.8 ± 10.
